# This is one part of the list.
# Compound: CC1Cc2ccccc2N1C(=O)C1CCCN(C1)C(=O)CCl (mixture of isomers) [TRIM25 ligand 11 (diastereomer mixture)]
# Test: probe-labelled cysteine peptide fold change vs DMSO (competition) (log2 fold change); higher = less target engagement (more negative = stronger competition)
# Conditions: THP-1, incubation time: 4 h
# 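Further: competitive chemoproteomic profiling in live THP-1 cells with an iodoacetamide desthiobiotin (IA-DTB) probe, comparing probe-labelled peptide intensities in compound-treated cells against DMSO-treated controls.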
Target,probe-labelled cysteine peptide fold change (10 µM),probe-labelled cysteine peptide fold change (50 µM)
RASAL2_Q9UJF2_189_YFCELCLDDTLFAR (UniProt Q9UJF2),0.119,0.0179
RANBP2_P49792_1549_KEGQWDCSSCLVR (UniProt P49792),-0.0222,0.139
RAE1_P78406_93_AQQMHTGPVLDVCWSDDGSK (UniProt P78406),-0.137,-0.21
RASA1_P20936_261_FSSLSDLIGYYSHVSCLLK (UniProt P20936),0.0868,-0.0482
RALGPS2_Q86X27_341_CHSLGYNFIHK (UniProt Q86X27),0.0251,0.0325
RBPJ_Q06330_180_NADLCIASGTK (UniProt Q06330),-0.0912,-0.204
RANBP2_P49792_1196_TGEEDEEEFFCNR (UniProt P49792),-0.113,0.219
RC3H1_Q5TC82_143_KLVTLVHCQLVEEEGR (UniProt Q5TC82),-0.261,-0.0517
RAPGEF6_Q8TEU7_1413_HTHLDDPIAEVEPTDSEPYSCSK (UniProt Q8TEU7),-0.102,-0.184
RCC2_Q9P258_158_TVVSGSCAAHSLLITTEGK (UniProt Q9P258),0.088,0.107
RBM26_Q5T8P6_53_ALCIDQLDVFLQK (UniProt Q5T8P6),0.0876,-0.00108
RAD9A_Q99638_129+141_THNLSFQDCESLQAVFDPASCPHMLR (UniProt Q99638),-0.111,-0.225
RANBP6_O60518_118_LCDIFAVLAR (UniProt O60518),0.152,0.0242
RBM4B_Q9BQ04_89_LHVGNISPTCTNQELR (UniProt Q9BQ04),0.0586,0.0319
RANBP1_P43487_132_AWVWNTHADFADECPKPELLAIR (UniProt P43487),-0.121,-0.198
RAP1GAP2_Q684P5_171_DHLNFYCTGSSLGNLILSVK (UniProt Q684P5),-0.163,0.056
RBM5_P52756_187_FEDWLCNK (UniProt P52756),-0.112,-0.0495
RBBP7_Q16576_277_PSHLVDAHTAEVNCLSFNPYSEFILATGSADK (UniProt Q16576),0.218,0.301
RCC1L_Q96I51_114_ISSAACGYGFTLLSSK (UniProt Q96I51),0.118,0.152
RAPGEF6_Q8TEU7_796_EVVFHAVHEFGLTGASDTYSLCEVSVTPEGVIK (UniProt Q8TEU7),0.228,-0.0184

Target,probe-labelled cysteine peptide fold change (10 µM),probe-labelled cysteine peptide fold change (50 µM)
RBKS_Q9H477_59_GANQCVQAAR (UniProt Q9H477),-0.143,-0.00794
RARS2_Q5T160_74_CDTVVSEISTGQR (UniProt Q5T160),0.227,-0.0404
RAP1A_P62834_141_QWCNCAFLESSAK (UniProt P62834),-0.0388,-0.00549
RBCK1_Q9BYM8_411_AIHEQMNCK (UniProt Q9BYM8),-0.0226,-0.0756
RANGAP1_P46060_169_ILAAALTECHRK (UniProt P46060),-0.233,-0.242
RANBP2_P49792_3221_ITITECGQI (UniProt P49792),-0.127,0.249
RBM22_Q9NW64_84_NVCQTCLLDLEYGLPIQVR (UniProt Q9NW64),-0.548,0.168
RAP1GDS1_P52306_117_ALGNICYDSHEGR (UniProt P52306),-0.092,-0.0739
RBBP9_O75884_163_FTDCGHFQNTEFHELITVVK (UniProt O75884),0.0304,-0.0766
RAE1_P78406_143_APNYSCVMTGSWDK (UniProt P78406),0.081,0.0104
RANBP6_O60518_952_SLCSEAVPLLVK (UniProt O60518),-0.00362,-0.161
RASGRP2_Q7LDG7_76_TCHLVR (UniProt Q7LDG7),0.0131,0.0133
RBM6_P78332_960_LACLLCR (UniProt P78332),-0.139,0.0569
RANGAP1_P46060_82_CHWSDMFTGR (UniProt P46060),0.177,-0.189
RCE1_Q9Y256_314_LYGSLPLCVLLER (UniProt Q9Y256),0.182,0.0157
RCHY1_Q96PM5_119_EDFFHCLK (UniProt Q96PM5),-0.069,0.0278
RB1CC1_Q8TDY2_282_ESCQSTVHQQDETTIDTK (UniProt Q8TDY2),-0.0787,-0.311
RBM22_Q9NW64_71_KTEVCQTCSK (UniProt Q9NW64),-0.0297,0.054
RCC2_Q9P258_337_DVACGANHTLVLDSQK (UniProt Q9P258),0.0808,0.077
